# Source: PubChem BioAssay AID2685 (National Center for Advancing Translational Sciences (NCATS), 2010)
# Some of the results follow. These are further read-outs of the screen, such as a control signal, another cell line or another target. No call is given for them. Most of these compounds were active or inconclusive in the main read-out, so they are no random draw. The note in brackets gives the kind of curve behind each potency; many fits are weak.
# Experiment: qHTS Assay for Lipid Storage Modulators in Drosophila S3 Cells;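 as to cell number change: cells counted by Cell Tracker Red CMTPX staining in the red channel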
# Details: BODIPY lipid droplet fluorescence, 18-24 h; for cell number change: measured here: cell count max response, cells fed with added oleic acid
# Procedure, shortened: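 Drosophila S3 cells loaded with oleic acid (400 uM, as added) and compounds at several concentrations; lipid droplets imaged by 488-nm laser-scanning cytometry, 500–530 nm intensity and object ratio to cell channel. Percent activity normalized to 20 uM Triacsin C.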
# [1] = measured here: cell number channel AC50, cells fed with added oleic acid
# [2] = measured here: lipid fluorescence (Fed channel) AC50, cells fed with added oleic acid
Compound,cell number change [%],AC50 [1],AC50 [2]
Cc1ccc(C(=O)N2CCN(c3ccc(NC(=O)c4cc(C)cc(C)c4)cc3)CC2)cc1,39.1,"0.184 µM [rising, full curve]",
O=S(=O)(NC(=NC1CCCCC1)c1ccccc1F)c1ccccc1,-22.4,,
Cc1cccc2sc(N(CCN(C)C)C(=O)C3CCN(S(=O)(=O)c4cccs4)CC3)nc12,119,"16.4 µM [rising, single point]",
COC(=O)[C@H](Cc1ccccc1)NC(=O)NCCc1ccc(F)cc1,25.4,,
COC(=O)c1c(-c2ccccc2)csc1NC1=NS(=O)(=O)c2ccccc21,-23.6,"2.31 µM [falling, full curve, poor fit]",
CSc1ccc(/C=C/C(=O)OCC(=O)NC(C)C)cc1,41.4,"29.1 µM [rising, single point]",
COc1ccccc1N=Nc1ccc(N)c(C)c1,,,"8.2 µM [falling, partial curve, poor fit]"
Cc1cccc(C)c1OCC(=O)Nn1c(=O)[nH]c2ccccc2c1=O,83.4,"25.9 µM [rising, partial curve]","23.1 µM [rising, partial curve]"
Cc1cc(SCC(=O)c2cccc([N+](=O)[O-])c2)nc(=O)[nH]1,-8.22,,
Cc1ccc(C(=O)NCC#N)cc1,,"5.8 µM [falling, single point]",
CC(C)(C)c1cc(-c2ccccc2)no1,-17.6,,"0.461 µM [falling, full curve, poor fit]"
O=C(Nc1c2ccccc2nc2ccccc12)C(Cl)(Cl)Cl,8.05,,
CC1CCCN(C(=O)CSCC(=O)Nc2nc(-c3cccs3)cs2)C1 (stereo unspecified),-42.7,"20.6 µM [falling, single point]","29.1 µM [falling, single point]"
CC(C)N(Cc1ccccc1)C(=O)CN1C(=O)COc2ccc(S(=O)(=O)NC3CCCC3)cc21,15.3,"0.00461 µM [rising, full curve, poor fit]",
CCOC(=O)CSc1nc2cc(S(=O)(=O)Nc3ccccc3OC)ccc2o1,,,"25.9 µM [falling, partial curve]"
Cc1ccc(S(=O)(=O)N2CCN(C(C)C(=O)Nc3ccccc3-c3ccccc3)CC2)cc1 (stereo unspecified),10.8,,"3.26 µM [rising, single point]"
Cc1ccc(SCCC(=O)NC(C(C)C)C(C)C)cc1,-66.7,"29.1 µM [falling, single point]",
O=C(CSc1ncnc2ccccc12)Nc1cccc(S(=O)(=O)N2CCCC2)c1,,"6.51 µM [rising, single point]","5.8 µM [rising, single point]"
CC(Oc1ccc(Cl)cc1Cl)C(=O)NCCCN(C)C (stereo unspecified),5.42,,"13 µM [rising, single point]"
Cc1cc(C)c(NC(=O)CNC(=O)Cc2ccc(S(=O)(=O)N3CCOCC3)s2)c(C)c1,-37.7,"29.1 µM [falling, single point]","4.11 µM [falling, single point]"
NC(=O)CSc1nc(-c2ccccc2Cl)ns1,,"6.51 µM [falling, single point]","4.11 µM [rising, single point]"
Cn1cnnc1SCc1ccc(C(=O)N/N=C(\CCC(=O)O)c2ccc(C(C)(C)C)cc2)cc1,4.6,"0.651 µM [falling, single point]",

Compound,cell number change [%],AC50 [1],AC50 [2]
Cc1ccc(Cn2nnc3c(=O)[nH]c(C4CCCN(S(=O)(=O)c5ccc(F)cc5)C4)nc32)cc1 (stereo unspecified),,"0.00651 µM [rising, full curve, poor fit]",
COc1cc(CNc2ccc3[nH]c(=O)[nH]c3c2)ccc1OCc1ccccc1F,-29.7,,"6.51 µM [falling, single point]"
O=C(NC(=S)Nc1cccc(CO)c1)c1ccc(-c2ccccc2)cc1,53.7,"29.1 µM [rising, single point]","0.82 µM [rising, partial curve]"
COc1cc2c(cc1OC)C(c1cc(C)ccc1C)CC(=O)N2 (stereo unspecified),-20.9,,"29.1 µM [falling, single point]"
CC1CCCN(C(=O)c2ccc3c(=O)n(C4CCCC4)c(=S)[nH]c3c2)C1 (stereo unspecified),-36.4,"2.31 µM [falling, partial curve, poor fit]","18.4 µM [falling, partial curve, poor fit]"
Cc1ccc(NC(=O)Cn2c(=O)c3cccn3c3ccccc32)c(C)c1,6.6,,
Cc1ccc(C2CC(C(F)(F)F)n3nc(C(=O)NCC4CCCO4)cc3N2)cc1 (stereo unspecified),43.3,"5.17 µM [rising, full curve, poor fit]",
C[C@H](NC(=O)[C@H]1N2C(=O)c3ccccc3C2SC1(C)C)C(=O)N1CCC[C@H]1CO (stereo partly specified),8.09,,
Cc1ccc(NC(=O)C2CCN(S(=O)(=O)c3c(C)[nH]c(=O)[nH]c3=O)CC2)cc1,-35.2,"0.92 µM [falling, full curve]","0.517 µM [falling, full curve, poor fit]"
O=[N+]([O-])c1cc(C(F)(F)F)ccc1N1CCN(S(=O)(=O)c2ccc3c(c2)CCCC3)CC1,-33,"4.61 µM [falling, full curve, poor fit]","25.9 µM [falling, single point]"
COc1ccc(C(=O)Nc2nc(C)c(C)s2)cc1OC,-0.849,,"0.184 µM [rising, full curve]"
CC(=O)NC(NC(C)=O)c1ccc(Br)cc1,-11.1,"6.51 µM [rising, partial curve, poor fit]","0.103 µM [rising, full curve, poor fit]"
COc1ccc(OCc2n[nH]c(=S)n2N)cc1,39.3,,
COc1cc(OC)cc(C(=O)Nc2ncn[nH]2)c1,5.59,,
O=C(N/N=C/c1ccccc1O)C1SCCCS1,-5.19,,"0.00461 µM [falling, full curve, poor fit]"
COc1ccc(/C=C/C(=O)OCc2nc3ccccc3c(=O)[nH]2)c(OC)c1,0.378,,"1.03 µM [rising, full curve, poor fit]"
CCOC(=O)N1CCC(N2CCN(Cc3ccc(C)o3)C(CCO)C2)CC1 (stereo unspecified),7.52,,"0.00411 µM [falling, full curve, poor fit]"
Cc1nc2ncnn2c(C)c1CCC(=O)N1CCN(C(=O)c2ccco2)CC1,-13.9,,
O=C(Nc1nnc(Cc2ccccc2)s1)c1cnccn1,5.41,,"0.0058 µM [rising, full curve, poor fit]"
COC(=O)c1ccc(Cn2cc(/C=C\[N+](=O)[O-])c3ccccc32)o1,-25.8,,
COC(=O)c1sccc1NC(=O)CSc1nnnn1-c1ccccc1C,59.2,"0.206 µM [rising, full curve, poor fit]","2.59 µM [rising, full curve]"
O=[N+]([O-])c1cc([N+](=O)[O-])c(Oc2cncc(Cl)c2)cc1NC1CCCCCCC1,14.1,,

# Looked up one by one from above, 4 records:
Compound,cell number change [%],AC50 [1],AC50 [2]
O=[N+]([O-])c1cc([N+](=O)[O-])c(Oc2cncc(Cl)c2)cc1NC1CCCCCCC1,14.1,,
COc1ccc(OCc2n[nH]c(=S)n2N)cc1,39.3,,
COc1ccc(C(=O)Nc2nc(C)c(C)s2)cc1OC,-0.849,,"0.184 µM [rising, full curve]"
O=C(Nc1nnc(Cc2ccccc2)s1)c1cnccn1,5.41,,"0.0058 µM [rising, full curve, poor fit]"

# Next structures:

Compound,cell number change [%],AC50 [1],AC50 [2]
CC(=O)c1cc2c(ccc3ccccc32)oc1=O,-4.67,,"6.51 µM [rising, single point]"
COc1ccc(C2NC(=O)NC(c3ccccc3)=C2c2nc3ccccc3s2)cc1 (stereo unspecified),-3.82,,
CCOC(=O)CC/C(=N\NC(N)=O)c1ccc(OC)c(Cl)c1,4.15,,"29.1 µM [rising, single point]"
COc1ccc(NC(=O)CN(c2ccc(OC)cc2)S(=O)(=O)c2c(C)nn(C)c2C)cc1,0.59,"6.51 µM [falling, single point]",
COc1ccc(CCNC(=O)c2cccc(S(=O)(=O)N3CCOCC3)c2)cc1OC,-8.8,,"0.146 µM [falling, full curve, poor fit]"
CC(=O)NC(C)c1nc2ccccc2n1CC(=O)NC(C)CCc1ccccc1 (stereo unspecified),17.3,,
CC(=O)c1c(N2CCN(c3ccccc3)CC2)nc(=S)n(-c2ccccc2)c1C,-15,,"0.517 µM [falling, single point]"
CC(=O)NC(CC(=O)NC1CCCCCC1)c1ccccc1 (stereo unspecified),5.34,,
CCCNC(=O)N1CCN(S(=O)(=O)c2ccc3c(c2)OCCO3)CC1,16.1,,"4.11 µM [rising, full curve, poor fit]"
COc1cc(C2Nc3ccccc3C(=O)N2NS(C)(=O)=O)c([N+](=O)[O-])cc1OC (stereo unspecified),-2.84,,
COCC(=O)N(c1ccccc1)C(C)C(=O)OC (stereo unspecified),-2.66,,
O=C(CCC(=O)OC(C(=O)c1ccccc1)c1ccccc1)Nc1ccccc1 (stereo unspecified),,,"29.1 µM [falling, partial curve]"
CCCN1CCN(CCCNC(=O)c2ccc3c(=O)n(CCc4ccccc4)c(=O)[nH]c3c2)CC1,25.2,,
Cc1cc(NC(=O)CSc2nc(Cc3ccccc3)c(C)[nH]2)no1,10.7,,
Cc1c(CC=C(Cl)Cl)c(=O)[nH]c2c(C)cccc12,-2.41,,"0.146 µM [rising, single point]"
CC1=CC2=NC(=O)CC(C)(C(=O)N(CC(=O)NC(C)(C)C)C3CCCC3)N2C=C1 (stereo unspecified),7.64,,
N#Cc1ccccc1OCC(=O)OCC(=O)c1ccc2c(c1)NC(=O)CO2,-11.5,,"0.0259 µM [rising, full curve, poor fit]"
O=C(CS(=O)(=O)c1ccccc1)Nc1ccc(N2CCOCC2)cc1,19.7,,
CCN(CC)S(=O)(=O)c1cc(NC(=O)COC(=O)c2sc3ccccc3c2Cl)ccc1C,33.6,"4.11 µM [rising, full curve, poor fit]",
O=C(COC(=O)CNC(=O)c1ccc(Cl)cc1Cl)NCC1CCCO1 (stereo unspecified),-9,,
